Compound in the test: Cc1cc(ccc1-c1ccccc1)C(=O)N1CCCN(CC1)C(=O)CCl [compound 10]
The test can be described thus: probe-labelled cysteine peptide fold change vs DMSO (competition) (log2 fold change); higher = less target engagement (more negative = stronger competition). As to conditions: THP-1, incubation time: 4 h.

The chains behind the UniProt entries cited, without tags or fusion partners. Where a name states a change or a piece, a line headed by the entry shows the natural chain unless it says otherwise.
UniProt P49023, whole entry, looked up: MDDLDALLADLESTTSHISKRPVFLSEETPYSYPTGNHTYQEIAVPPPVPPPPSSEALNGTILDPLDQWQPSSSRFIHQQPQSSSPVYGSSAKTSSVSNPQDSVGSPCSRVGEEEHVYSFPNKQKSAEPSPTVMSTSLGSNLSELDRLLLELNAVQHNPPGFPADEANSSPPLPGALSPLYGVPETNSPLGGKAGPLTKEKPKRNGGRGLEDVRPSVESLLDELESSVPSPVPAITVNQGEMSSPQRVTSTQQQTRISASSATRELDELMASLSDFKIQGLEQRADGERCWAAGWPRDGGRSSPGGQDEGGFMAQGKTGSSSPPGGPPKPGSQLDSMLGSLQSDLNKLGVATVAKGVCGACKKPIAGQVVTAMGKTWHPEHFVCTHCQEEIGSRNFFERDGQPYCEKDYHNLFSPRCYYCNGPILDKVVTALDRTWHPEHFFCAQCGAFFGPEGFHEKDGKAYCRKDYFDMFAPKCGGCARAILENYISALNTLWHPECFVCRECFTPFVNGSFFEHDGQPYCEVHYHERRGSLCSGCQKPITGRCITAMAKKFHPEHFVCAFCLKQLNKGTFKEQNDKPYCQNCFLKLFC
UniProt Q7Z7A4: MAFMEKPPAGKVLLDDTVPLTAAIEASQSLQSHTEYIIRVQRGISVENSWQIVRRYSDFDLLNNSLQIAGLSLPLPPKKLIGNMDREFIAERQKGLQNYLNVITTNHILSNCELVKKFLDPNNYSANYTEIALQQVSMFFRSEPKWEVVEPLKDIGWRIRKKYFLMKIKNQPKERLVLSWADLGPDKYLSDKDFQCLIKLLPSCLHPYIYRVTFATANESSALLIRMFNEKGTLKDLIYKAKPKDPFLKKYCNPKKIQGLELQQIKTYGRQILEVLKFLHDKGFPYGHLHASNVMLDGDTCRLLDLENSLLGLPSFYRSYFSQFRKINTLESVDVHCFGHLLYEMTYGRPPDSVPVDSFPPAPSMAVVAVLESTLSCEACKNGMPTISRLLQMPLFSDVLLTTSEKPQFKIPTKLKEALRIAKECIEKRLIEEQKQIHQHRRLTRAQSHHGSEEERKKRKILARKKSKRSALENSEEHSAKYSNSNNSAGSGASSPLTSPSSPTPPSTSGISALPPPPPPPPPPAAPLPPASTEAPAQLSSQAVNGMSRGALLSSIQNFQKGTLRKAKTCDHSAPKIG
UniProt P51149, whole entry, looked up: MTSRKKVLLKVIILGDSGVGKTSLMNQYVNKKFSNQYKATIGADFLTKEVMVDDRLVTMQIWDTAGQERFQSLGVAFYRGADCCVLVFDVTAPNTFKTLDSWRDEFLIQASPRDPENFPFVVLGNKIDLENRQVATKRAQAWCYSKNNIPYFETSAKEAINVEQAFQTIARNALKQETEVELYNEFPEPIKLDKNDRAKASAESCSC
UniProt O95716: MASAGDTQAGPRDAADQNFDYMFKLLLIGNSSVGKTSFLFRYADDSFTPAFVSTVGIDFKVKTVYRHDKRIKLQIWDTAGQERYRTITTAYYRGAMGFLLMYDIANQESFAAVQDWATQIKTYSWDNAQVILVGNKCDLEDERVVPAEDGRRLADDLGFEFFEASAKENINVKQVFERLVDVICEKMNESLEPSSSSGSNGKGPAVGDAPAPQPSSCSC
UniProt Q9H5N1: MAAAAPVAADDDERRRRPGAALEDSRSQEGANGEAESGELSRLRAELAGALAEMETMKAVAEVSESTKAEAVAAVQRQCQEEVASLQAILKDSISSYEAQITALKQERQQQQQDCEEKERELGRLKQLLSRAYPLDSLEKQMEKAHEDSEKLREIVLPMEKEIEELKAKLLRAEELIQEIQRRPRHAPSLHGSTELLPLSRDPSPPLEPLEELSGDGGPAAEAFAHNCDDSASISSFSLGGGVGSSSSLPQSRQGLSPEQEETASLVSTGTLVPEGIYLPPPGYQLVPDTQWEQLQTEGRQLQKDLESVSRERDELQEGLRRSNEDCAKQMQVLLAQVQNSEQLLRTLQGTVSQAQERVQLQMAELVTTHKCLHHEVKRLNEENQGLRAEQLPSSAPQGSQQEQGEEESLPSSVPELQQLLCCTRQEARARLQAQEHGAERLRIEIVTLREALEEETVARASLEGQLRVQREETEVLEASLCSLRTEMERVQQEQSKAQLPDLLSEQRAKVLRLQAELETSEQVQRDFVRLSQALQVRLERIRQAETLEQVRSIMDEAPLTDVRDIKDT
UniProt Q9Y620: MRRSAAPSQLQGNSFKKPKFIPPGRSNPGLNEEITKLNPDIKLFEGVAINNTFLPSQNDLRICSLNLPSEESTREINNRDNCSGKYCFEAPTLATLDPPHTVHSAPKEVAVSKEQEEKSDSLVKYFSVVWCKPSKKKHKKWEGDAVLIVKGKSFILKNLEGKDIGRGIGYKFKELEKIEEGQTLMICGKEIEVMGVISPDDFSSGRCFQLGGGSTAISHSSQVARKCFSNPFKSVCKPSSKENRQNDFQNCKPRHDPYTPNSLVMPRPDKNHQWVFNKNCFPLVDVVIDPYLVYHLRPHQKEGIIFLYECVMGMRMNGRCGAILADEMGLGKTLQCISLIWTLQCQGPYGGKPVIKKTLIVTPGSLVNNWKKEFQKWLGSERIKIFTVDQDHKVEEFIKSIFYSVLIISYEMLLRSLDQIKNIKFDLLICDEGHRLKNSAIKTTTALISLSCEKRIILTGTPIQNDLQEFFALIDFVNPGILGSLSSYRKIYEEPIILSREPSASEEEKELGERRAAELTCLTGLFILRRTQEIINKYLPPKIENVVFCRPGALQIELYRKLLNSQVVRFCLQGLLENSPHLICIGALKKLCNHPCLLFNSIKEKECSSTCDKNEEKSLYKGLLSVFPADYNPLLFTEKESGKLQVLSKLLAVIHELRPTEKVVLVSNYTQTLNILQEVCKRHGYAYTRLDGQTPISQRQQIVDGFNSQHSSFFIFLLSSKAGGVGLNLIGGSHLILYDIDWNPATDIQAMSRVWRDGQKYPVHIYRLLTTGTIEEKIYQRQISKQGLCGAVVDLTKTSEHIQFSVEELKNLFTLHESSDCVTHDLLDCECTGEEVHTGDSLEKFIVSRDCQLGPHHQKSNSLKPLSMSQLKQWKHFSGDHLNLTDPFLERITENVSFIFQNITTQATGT
UniProt Q7Z6P3: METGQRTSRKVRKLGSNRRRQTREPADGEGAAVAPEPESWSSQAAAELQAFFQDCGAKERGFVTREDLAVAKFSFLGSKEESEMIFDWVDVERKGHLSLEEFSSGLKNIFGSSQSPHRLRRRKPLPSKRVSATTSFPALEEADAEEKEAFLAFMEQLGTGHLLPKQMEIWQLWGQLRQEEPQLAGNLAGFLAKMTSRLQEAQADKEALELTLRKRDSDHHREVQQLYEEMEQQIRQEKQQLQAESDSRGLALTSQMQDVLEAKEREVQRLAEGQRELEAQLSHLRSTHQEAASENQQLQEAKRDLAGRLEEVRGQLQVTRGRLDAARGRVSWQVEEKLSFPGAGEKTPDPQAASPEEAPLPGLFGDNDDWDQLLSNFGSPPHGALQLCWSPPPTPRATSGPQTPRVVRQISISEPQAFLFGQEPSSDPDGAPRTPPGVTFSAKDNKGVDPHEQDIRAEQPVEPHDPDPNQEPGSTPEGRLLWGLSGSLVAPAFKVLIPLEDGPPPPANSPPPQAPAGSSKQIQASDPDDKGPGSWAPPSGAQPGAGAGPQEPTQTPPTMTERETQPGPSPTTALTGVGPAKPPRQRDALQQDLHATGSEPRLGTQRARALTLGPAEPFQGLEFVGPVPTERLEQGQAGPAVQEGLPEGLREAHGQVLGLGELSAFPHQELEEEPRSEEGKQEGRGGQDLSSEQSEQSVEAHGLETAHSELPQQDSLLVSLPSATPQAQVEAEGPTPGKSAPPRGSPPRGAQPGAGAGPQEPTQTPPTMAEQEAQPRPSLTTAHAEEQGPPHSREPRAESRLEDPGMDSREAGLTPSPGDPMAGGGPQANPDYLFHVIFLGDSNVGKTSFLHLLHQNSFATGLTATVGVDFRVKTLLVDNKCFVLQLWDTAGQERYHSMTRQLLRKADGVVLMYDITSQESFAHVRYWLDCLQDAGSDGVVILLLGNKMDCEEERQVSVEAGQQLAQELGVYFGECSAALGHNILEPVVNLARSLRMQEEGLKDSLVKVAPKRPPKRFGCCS
UniProt Q99638: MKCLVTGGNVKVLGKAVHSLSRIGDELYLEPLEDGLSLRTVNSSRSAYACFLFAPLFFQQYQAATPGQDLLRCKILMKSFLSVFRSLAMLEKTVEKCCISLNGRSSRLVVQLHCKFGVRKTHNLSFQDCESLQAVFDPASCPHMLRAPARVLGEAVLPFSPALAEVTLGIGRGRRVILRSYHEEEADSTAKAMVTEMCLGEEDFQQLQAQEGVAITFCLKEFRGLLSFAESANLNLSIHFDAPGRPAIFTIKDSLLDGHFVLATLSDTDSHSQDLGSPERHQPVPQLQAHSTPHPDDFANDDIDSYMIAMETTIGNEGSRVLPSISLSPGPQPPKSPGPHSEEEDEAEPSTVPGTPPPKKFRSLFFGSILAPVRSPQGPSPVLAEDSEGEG
UniProt Q15269: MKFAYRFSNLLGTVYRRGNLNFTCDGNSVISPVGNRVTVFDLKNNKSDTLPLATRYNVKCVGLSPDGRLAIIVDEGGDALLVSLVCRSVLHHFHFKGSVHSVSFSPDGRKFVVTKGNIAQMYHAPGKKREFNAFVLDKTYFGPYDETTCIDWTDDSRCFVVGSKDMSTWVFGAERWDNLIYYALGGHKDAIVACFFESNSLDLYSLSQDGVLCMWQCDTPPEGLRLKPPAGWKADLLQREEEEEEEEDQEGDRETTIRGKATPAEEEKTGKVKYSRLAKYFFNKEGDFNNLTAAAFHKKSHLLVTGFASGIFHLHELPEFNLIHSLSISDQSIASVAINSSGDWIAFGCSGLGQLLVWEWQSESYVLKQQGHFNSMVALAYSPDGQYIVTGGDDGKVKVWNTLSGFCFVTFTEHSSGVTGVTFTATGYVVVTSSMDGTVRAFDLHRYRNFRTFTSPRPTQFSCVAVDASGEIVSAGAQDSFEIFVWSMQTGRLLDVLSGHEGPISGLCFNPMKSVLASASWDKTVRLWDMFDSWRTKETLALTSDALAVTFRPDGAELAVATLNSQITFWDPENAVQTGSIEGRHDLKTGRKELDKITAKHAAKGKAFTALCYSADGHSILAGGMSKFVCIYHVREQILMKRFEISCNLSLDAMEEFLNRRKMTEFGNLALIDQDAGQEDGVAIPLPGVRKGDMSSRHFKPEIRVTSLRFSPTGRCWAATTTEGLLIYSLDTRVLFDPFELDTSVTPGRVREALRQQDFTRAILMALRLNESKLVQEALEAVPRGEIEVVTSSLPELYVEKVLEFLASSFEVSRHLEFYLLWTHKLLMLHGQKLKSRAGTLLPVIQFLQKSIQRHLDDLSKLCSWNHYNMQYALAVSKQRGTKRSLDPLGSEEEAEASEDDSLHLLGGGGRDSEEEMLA
UniProt Q9Y3T6: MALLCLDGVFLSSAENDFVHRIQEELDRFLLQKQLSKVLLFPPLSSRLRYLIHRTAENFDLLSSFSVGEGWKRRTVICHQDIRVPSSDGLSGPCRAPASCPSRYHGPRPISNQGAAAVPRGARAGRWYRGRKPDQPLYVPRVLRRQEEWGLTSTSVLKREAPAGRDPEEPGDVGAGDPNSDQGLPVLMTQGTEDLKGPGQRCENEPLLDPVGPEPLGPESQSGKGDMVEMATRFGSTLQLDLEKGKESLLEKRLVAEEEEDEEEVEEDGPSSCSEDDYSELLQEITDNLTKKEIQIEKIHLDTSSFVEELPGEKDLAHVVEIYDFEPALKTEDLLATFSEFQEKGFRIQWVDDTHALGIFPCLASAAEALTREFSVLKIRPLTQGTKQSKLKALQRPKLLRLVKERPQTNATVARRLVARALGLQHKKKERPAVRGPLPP
UniProt Q9UL25: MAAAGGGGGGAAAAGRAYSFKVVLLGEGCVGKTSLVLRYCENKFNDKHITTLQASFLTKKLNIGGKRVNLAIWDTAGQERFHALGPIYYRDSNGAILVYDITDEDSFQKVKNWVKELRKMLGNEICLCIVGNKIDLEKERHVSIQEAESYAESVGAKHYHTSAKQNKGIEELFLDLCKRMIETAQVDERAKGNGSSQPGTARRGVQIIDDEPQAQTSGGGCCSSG

The values below come from the supplement of paper PMC12067093, “Discovery and optimisation of a covalent ligand for TRIM25 and its application to targeted protein ubiquitination” (Chemical Science, 2025).

The list shows a part of the results.
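Also: competitive profiling in live THP-1 cells: cysteine peptides tagged with an iodoacetamide desthiobiotin (IA-DTB) probe, intensity after compound treatment relative to DMSO-treated cells.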

Turning to “PXN_P49023_443+446_TWHPEHFFCAQCGAFFGPEGFHEK (UniProt P49023)”, the “probe-labelled cysteine peptide fold change” value by setting is: (10 µM) 0.119; (50 µM) -0.0963.
For “RAD50_Q92878_788_VCLTDVTIMER (UniProt Q92878)”, in that order: 0.156 and 0.237.
Take PXK_Q7Z7A4_196_DFQCLIK (UniProt Q7Z7A4): the “probe-labelled cysteine peptide fold change” value was 0.101 (10 µM) and -0.2 (50 µM).
For “RAB7A_P51149_83_GADCCVLVFDVTAPNTFK (UniProt P51149)”, in that order: 0.0266 and -0.0612.
For “RAB3D_O95716_137_CDLEDERVVPAEDGRR (UniProt O95716)”, in that order: 0.0274 and 0.0257.
Regarding “RACK1_P63244_207_TNHIGHTGYLNTVTVSPDGSLCASGGKDGQAMLWDLNEGK (UniProt P63244)”, the “probe-labelled cysteine peptide fold change” value was -0.303 (10 µM) and -0.656 (50 µM).
For “RABEP2_Q9H5N1_482_VQREETEVLEASLCSLR (UniProt Q9H5N1)”, in that order: 0.00216 and -0.31.
For “RAD54B_Q9Y620_320_CGAILADEMGLGK (UniProt Q9Y620)”, the “probe-labelled cysteine peptide fold change” value runs as follows: (10 µM) 0.0206; (50 µM) -0.483.
For “RAB44_Q7Z6P3_950_MDCEEER (UniProt Q7Z6P3)” the same measures were 0.189 and 0.236.
In the case of “RAD9A_Q99638_3_CLVTGGNVK (UniProt Q99638)”, the “probe-labelled cysteine peptide fold change” value (10 µM) was found to be 0.0786 and the “probe-labelled cysteine peptide fold change” value (50 µM) is -0.0956.
Turning to “PWP1_Q13610_439_MGVLFCSSCCPDLPFIYAFGGQK (UniProt Q13610)”, the “probe-labelled cysteine peptide fold change” value by setting is: (10 µM) -0.0362; (50 µM) 0.0392.
“PWP2_Q15269_612_AFTALCYSADGHSILAGGMSK (UniProt Q15269)”: the “probe-labelled cysteine peptide fold change” value runs as follows: (10 µM) 0.215; (50 µM) 0.425.
For “R3HCC1_Q9Y3T6_94_VPSSDGLSGPCR (UniProt Q9Y3T6+R3HCC1)” the same measures were 0.108 and -0.0791.
For “RAB21_Q9UL25_128_MLGNEICLCIVGNK (UniProt Q9UL25)” the same measures were -0.0617 and 0.194.
